Substitutions are numbered along the chain they refer to. In names and notes the source's numbering stands. These are yes or no findings as the source states them, for the method shown. Some entries that bind do so weakly or less than the wild type.

Amino acid sequences for entries named in this document (tags omitted).
UniProt P06730: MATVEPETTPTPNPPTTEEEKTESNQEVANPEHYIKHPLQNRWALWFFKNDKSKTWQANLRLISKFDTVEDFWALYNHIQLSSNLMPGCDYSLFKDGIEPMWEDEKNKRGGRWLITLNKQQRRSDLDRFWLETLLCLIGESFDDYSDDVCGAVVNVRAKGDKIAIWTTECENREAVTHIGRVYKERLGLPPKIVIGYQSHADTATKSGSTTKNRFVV

B1: pT37/pT46/pS83 4E-BP2 (S65A/T70A) (protein, UniProt Q13542 1-120)
chain: MSSSAGSGHQPSQSRAIPTRTVAISDAAQLPHDYCTTPGGTLFSTTPGGTRIIYDRKFLLDRRNAPMAQAPPCHLPNIPGVTSPGTLIEDSKVEVNNLNNLNNHDRKHAVGDDAQFEMDI
modifications: phosphothreonine at 37 and 46; phosphoserine at 83
B2: pT37/pT46/pT70/pS83 4E-BP2 (S65A) (protein, UniProt Q13542 1-120)
chain: B1 chain with A70T
modifications: phosphothreonine at 37, 46 and 70; phosphoserine at 83
B3: pT37/pT46/pS65/pT70 4E-BP2 (S83A) (protein, UniProt Q13542 1-120)
chain: B1 chain with A65S, A70T, S83A
modifications: phosphothreonine at 37, 46 and 70; phosphoserine at 65
B4: pT37/pT46/pS65/pS83 4E-BP2 (T70A) (protein, UniProt Q13542 1-120)
chain: B1 chain with A65S
modifications: phosphothreonine at 37 and 46; phosphoserine at 65 and 83
B5: pT37/pT46/pT70 4E-BP2 (S65A/S83A) (protein, UniProt Q13542 1-120)
chain: B1 chain with A70T, S83A
modifications: phosphothreonine at 37, 46 and 70
B6: pT37/pT46/pS65 4E-BP2 (T70A/S83A) (protein, UniProt Q13542 1-120)
chain: B1 chain with A65S, S83A
modifications: phosphothreonine at 37 and 46; phosphoserine at 65

In this assay the target is eukaryotic translation initiation factor 4E (eIF4E) (UniProt P06730). The assay can be described thus: ITC; MicroCal ITC200; data collection as detailed in ref. 11; KD as mean and standard deviation of repeat samples (n = 3 for 5p-4E-BP2, n = 2 or 1 for the other variants); both purified. A general note: ITC needs no label: the signal is the heat of the interaction.
As to B1, the binding entry is on record as “binds”. With B2, the binding result is given as “binds”.

Regarding B3, the binding result was “binds”.

Turning to B4, the binding entry was “binds”. On to B5, for which the binding result is listed as “binds”. For B6 the value was “binds”.

The values above are taken from publication PMC7305185.
